# Experimental data as given in PubChem BioAssay AID624291 (National Center for Advancing Translational Sciences (NCATS), 2012).
# Screen size: about 350,000 compounds; about 220 (0.063%) were called active. Inconclusive results, whose numbers are uncertain, are shown with a selection of clear calls. Calls follow the shape of the dose curve; as a rule, active = well fitted activation curve with a large enough effect; inconclusive = small, poorly fitted or top-dose-only effect; inactive = no such curve, though single readings can be large or run the other way. Where the call is inconclusive, the potency comes from a doubtful curve fit.
# Assay: qHTS for Activators of Integrin-Mediated Alleviation for Muscular Dystrophy; also: nearly all actives have a fitted effect of over 60% in size;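 as to activation: 100% = response of the positive control SU9516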
# Conditions: alpha7betagal myoblasts, beta-gal FDG fluorescence, 48 h; activation: at 38.3 µM (top of the series)
# In short: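 Alpha7betagal+/- myoblasts (passage 13) were plated 16-24 hr, then exposed to compounds (1:260 dilution of DMSO stock) for 48 hours at 37C. After MPER lysis, β-galactosidase reporter activity was read as FDG fluorescence (ex 480/em 540) after 30 minutes.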
# Potency is read from the fitted curve at half-maximal effect.
SMILES,Potency,activation
CCOC(=O)c1c(C=O)c2ccccc2n1Cc1ccccc1F,"inconclusive: 5.62 µM [activator, partial curve, poor fit]",
O=C1CC(=O)N(c2ccccc2)C(=O)N1c1ccccc1,,inconclusive: 91.2% [activator]
CCn1c(=O)cc(OCC(=O)N2CCC3(CC2)OCCO3)c2ccccc21,"inconclusive: 12.6 µM [activator, single point]",
COc1cc(/C=C2\C[C@H]3[C@@H]4CC=C5C[C@@H](N6CCCC6)CC[C@]5(C)[C@H]4CC[C@]3(C)[C@H]2O)cc(OC)c1OC,,inactive: 0%
CN(C)CC(C(=O)Cc1ccccc1)c1ccccc1 (configuration not stated),,inactive: -72.2%
CCC1(OC(=O)CN)C(=O)OCc2c1cc1n(c2=O)Cc2cc3ccccc3nc2-1 (configuration not stated),"inconclusive: 0.447 µM [activator, partial curve, poor fit]",
C[C@]12CCC3C(CC[C@H]4C[C@H](O)[C@H](O)C[C@]34C)C1CC[C@@H]2O (some centres not stated),,inactive: 25.5%
COc1cc2c(cc1OC)C13CCN4C=C5CCOC6CC(=O)N2C1C6C5CC43 (configuration not stated),"inconclusive: 14.1 µM [activator, partial curve, poor fit]",
O=c1[nH]c(O)c(C=NCCc2ccccc2)c(=O)[nH]1,"inconclusive: 28.2 µM [activator, single point]",
COc1ccc(C(=O)Oc2cccc3cccnc23)cc1S(=O)(=O)N1CCOCC1,,inactive: -20.1%
CCN(CC)c1ccc(C=C2C(=O)NC(=S)NC2=O)cc1,,inactive: -22.9%
CC(=O)O[C@]1(C)C(=O)OC/C2=C/CN(C)CCC(OC(=O)[C@@](O)(C(C)O)C[C@H]1C)C2=O (some centres not stated),"inconclusive: 3.55 µM [activator, single point]",
Cn1c(O)c(C(c2ccccn2)c2c(O)n(C)c(=S)n(C)c2=O)c(=O)n(C)c1=S,,inactive: 0.898%
CC(=O)OC1C2(CC3N4C(=O)C5(CO)SSC4(CC31O)C(=O)N5C)OC(C)C(C)(C)C2=O (configuration not stated),,inconclusive: -52.5% [activator]
COc1ccccc1N1CCN(C2CCN(C(=O)c3cccs3)CC2)CC1,,inactive: -45%
COc1ccc(S(=O)(=O)Nc2cc([N+](=O)[O-])ccc2OC)cc1,"inconclusive: 15.8 µM [activator, single point]",
CC(=NCCc1c[nH]c2ccccc12)c1c(O)n(Cc2ccccc2)c(=O)[nH]c1=O,,inactive: -0.259%
O=[N+]([O-])c1ccc(NCCCN2CCOCC2)nc1,"inconclusive: 14.1 µM [activator, single point]",
c1cncc(CNCCc2ccc3c(c2)OCO3)c1,"inconclusive: 0.447 µM [activator, partial curve, poor fit]",
CN(Cc1ccccc1)C(=O)CN1CCCC1=O,"inconclusive: 11.2 µM [activator, single point]",
O=c1[nH]c(=O)n(Cc2ccccc2Cl)c(O)c1/C=C1/C=CC=N1,,inactive: 10.8%
CCOc1ccccc1CNCCc1ccc2c(c1)OCO2,,inactive: -19.9%
CCC(Oc1cc(Cl)ccc1Cl)C(=O)N1CCC2(CC1)OCCO2 (configuration not stated),"inconclusive: 2.82 µM [activator, single point]",
CC1CN(c2ccc([N+](=O)[O-])cc2Cl)CCN1 (configuration not stated),,inactive: -35.7%

SMILES,Potency,activation
COc1ccc(C(=O)CN2CCCCC2)cc1,active: 12.6 µM,
CC1=C(C(=O)O)N2C(=O)C(NC(=O)c3nn(C)cc3[N+](=O)[O-])C2SC1 (configuration not stated),,inactive: 0.864%
O=C(C[N+]12CCC(CC1)C(CO)C2)c1ccc(Br)cc1 (configuration not stated),,inactive: 5.66%
OC1/C(=C/c2ccc(C(F)(F)F)cc2)N2CCC1CC2 (configuration not stated),"inconclusive: 5.62 µM [activator, partial curve, poor fit]",
Cc1ccc(Cn2cc(C=O)c(-c3ccc(F)cc3)n2)cc1,"inconclusive: 5.01 µM [activator, single point]",
O=C1NC(=O)C2(Cc3c(nc4ccccn4c3=O)N3CCCCCC32)C(=O)N1Cc1ccccc1 (configuration not stated),"inconclusive: 12.6 µM [activator, single point]",
CC(C)[C@H]1C(=O)O[C@@H]2CCN3CC=C(COC(=O)[C@](C)(O)[C@]1(C)O)[C@H]23,"inconclusive: 5.01 µM [activator, single point]",
CN(C)C(=O)Oc1ccc2oc(=O)cc(-c3cc4ccccc4o3)c2c1,"inconclusive: 5.01 µM [activator, single point]",
C[C@]12C[C@@H](O)[C@H](O)CC1=CCC1C2CC[C@@]2(C)C1CC[C@@H]2O (some centres not stated),,inactive: 13.6%
Cc1cccc(OCC(=O)N2CCN(Cc3cccnc3)CC2)c1,,inactive: 8.68%
c1cnc(OCCN2CC2)cn1,"inconclusive: 3.16 µM [activator, single point]",
CCOc1ccc2nc(N=Nc3c(O)[nH]c(=O)[nH]c3=O)sc2c1,"inconclusive: 4.47 µM [activator, single point]",
N#CC(C#N)=NNc1ccc(S(=O)(=O)N2CCCC2)cc1,"inconclusive: 11.2 µM [activator, single point]",
CCCCCSc1cc(OC)c(CCN)cc1OC,,inactive: -52.5%
c1ccc(CCNCc2cccnc2)cc1,,inactive: -24.9%
Nc1nnc(Sc2ncccc2[N+](=O)[O-])s1,,inactive: -57.8%
CC(=O)OC1C(=O)OCC23CCC4(C)OC4C2OC2CC(OC(=O)C=CC=CC(=O)OCCC1C)C3(C)C21CO1 (configuration not stated),,inconclusive: -54% [activator]
CC1=CC2OC3CC4OC(=O)C=CC=CC(C(C)O)OCC(O)C5(C)OC5C(=O)OCC2(CC1O)C4(C)C31CO1 (configuration not stated),,inconclusive: -55.6% [activator]
Cn1c(O)c(C=NCCN2CCOCC2)c(=O)n(C)c1=S,"inconclusive: 28.2 µM [activator, single point]",
CCOc1cc(C)cc2oc(=O)c3c(c12)CCCC3,"inconclusive: 3.98 µM [activator, single point]",
OC(CNCc1ccccc1)c1ccc(Cl)cc1 (configuration not stated),"inconclusive: 20 µM [activator, single point]",
CCOc1ccccc1N1C(=O)CC(=O)NC1=O,"inconclusive: 1.58 µM [activator, single point]",
CCCCCc1nc2c(c(=O)c3ccccc3n2C)c(=O)n1C1CCCCCC1,,inactive: -53.4%
